Laboratory results: PubChem BioAssay AID330 (DTP/NCI, 2004)
The list is a part of this screen's results and no random one: it is rich in T/C values a quarter to a half above the control, in often repeated tests (any T/C) and in doses without a T/C. Other doses and runs of a compound stand elsewhere. T/C gives the treated animals as a percentage of the vehicle group. Some doses have a count of surviving animals in place of a T/C: the source files T/C as zero there, which appears to mark a toxic dose or a test without result, not a measured value. Some survivor counts are full or nearly so, which does not show that the dose was tolerated: survival well below the control is almost never listed, so the zero probably covers shortened survival too. Counts of survivors are from the toxicity check (mostly the fifth day) where no day follows; animals may have died later. Schedule codes are those of the source, read here as Q, the interval in days (D) or hours (H), X, the number of doses. Some entries were tested several times; the results are listed from low to high. Brackets with × say how often a value occurs here. Where survival is the endpoint, this PubChem deposit counts one and a half times the control or more as active, and values a quarter to a half above the control carry no call in these data; other NCI protocols may use other cut-offs. Some T/C values are followed by the survivors on the day toxicity was checked, most often the fifth; without a count, all were alive then.

Test system: P388 leukemia ip, CD2F1 mice, survival T/C
Experiment: NCI In Vivo Anticancer Drug Screen. Data for tumor model P388 Leukemia (intraperitoneal) in CD2F1 (CDF1) mice
Conditions: T/C endpoint: median survival time, higher T/C = longer survival
[1] = dose: 200.0 mg/kg/injection, schedule: Q01DX005 (ip), vehicle: Klucel (hydroxypropylcellulose) (HPC)
[2] = dose: 200.0 mg/kg/injection, schedule: Q01DX009 (ip), vehicle: Klucel (hydroxypropylcellulose) (HPC)
[3] = dose: 400.0 mg/kg/injection, schedule: Q01DX005 (ip), vehicle: Klucel (hydroxypropylcellulose) (HPC)
[4] = dose: 400.0 mg/kg/injection, schedule: Q01DX009 (ip), vehicle: Klucel (hydroxypropylcellulose) (HPC)

Which results are given for `CN(Cc1cnc2nc(N)nc(N)c2n1)c1c(Cl)cc(C(=O)NC(CCC(=O)O)C(=O)O)cc1Cl` (configuration not stated)?
T/C (dose: 100.0 mg/kg/injection, schedule: Q04DX003 (ip), vehicle: Klucel (hydroxypropylcellulose) (HPC), evaluated on day 35): 192 % of control; T/C (dose: 200.0 mg/kg/injection, schedule: Q01DX001 (ip), vehicle: Klucel (hydroxypropylcellulose) (HPC), evaluated on day 30): 92, 112, 114, 115, 118, 126 (3×), 129, 131, 131 [2 of 3 alive], 133, 138, 145, 147, 148, 150 (4×), 157, 160, 163, 167, 169 (2×), 175, 184, 194 % of control; T/C (dose: 200.0 mg/kg/injection, schedule: Q01DX001 (ip), vehicle: Klucel (hydroxypropylcellulose) (HPC), evaluated on day 35): 131 % of control [5 of 6 alive]; survivor count (dose: 200.0 mg/kg/injection, schedule: Q01DX001 (ip), vehicle: Klucel (hydroxypropylcellulose) (HPC)): 3 of 3 and 6 of 6; T/C [1]: 86 (2×), 92, 100, 165, 182, 194, 199, 201, 212, 220 [2 of 3 alive], 221 [5 of 6 alive], 222, 228, 240, 242 % of control; survivor count [1]: 2 of 3, 5 of 6 (2×), 3 of 3, 6 of 6; survivor count (dose: 200.0 mg/kg/injection, schedule: Q01DX005 (iv), vehicle: suspension in saline): 3 of 6; T/C [2]: 87, 93, 96, 98, 105, 109, 114, 179 [5 of 6 alive], 192, 216 % of control; survivor count [2]: 1 of 3, 3 of 6, 2 of 3, 4 of 6, 5 of 6 (2×), 3 of 3, 6 of 6; T/C (dose: 200.0 mg/kg/injection, schedule: Q04DX002 (ip), vehicle: Klucel (hydroxypropylcellulose) (HPC)): 127, 138, 139 (2×), 147, 153, 156, 157, 158, 163 (2×), 166, 167, 169 (2×), 171, 172 (2×), 175, 178, 179, 180, 184, 191, 192, 196, 202, 205 (2×), 211, 218, 222 (2×), 235, 237 % of control; T/C (dose: 200.0 mg/kg/injection, schedule: Q04DX003 (ip), vehicle: Klucel (hydroxypropylcellulose) (HPC), evaluated on day 30): 133 (2×), 153 (2×), 154 (2×), 155, 160, 161 (2×), 169, 172, 180, 181 (2×), 188, 189 (2×), 189 [5 of 6 alive], 191, 200, 203, 209, 210, 212, 212 [5 of 6 alive], 215, 217, 229, 241, 242, 243, 251, 257, 261 % of control; T/C (dose: 200.0 mg/kg/injection, schedule: Q04DX003 (ip), vehicle: Klucel (hydroxypropylcellulose) (HPC), evaluated on day 35): 223 % of control; T/C (dose: 400.0 mg/kg/injection, schedule: Q01DX001 (ip), vehicle: Klucel (hydroxypropylcellulose) (HPC), evaluated on day 30): 110, 110 [2 of 3 alive], 120, 123, 131 (2×), 140 (2×), 150 [5 of 6 alive], 160, 163, 167 (2×), 170, 172, 175, 176, 179, 180, 183, 185, 187 (2×), 189, 191, 196, 198, 203, 205 % of control; T/C (dose: 400.0 mg/kg/injection, schedule: Q01DX001 (ip), vehicle: Klucel (hydroxypropylcellulose) (HPC), evaluated on day 35): 159 % of control; survivor count (dose: 400.0 mg/kg/injection, schedule: Q01DX001 (ip), vehicle: Klucel (hydroxypropylcellulose) (HPC)): 5 of 6, 3 of 3, 6 of 6; T/C [3]: 226 % of control; survivor count [3]: 1 of 3, 2 of 6, 3 of 6, 2 of 3, 4 of 6 (2×), 5 of 6, 3 of 3, 6 of 6; T/C [4]: 92 % of control [5 of 6 alive]; survivor count [4]: 0 of 3, 1 of 3, 2 of 6, 3 of 6, 2 of 3, 4 of 6, 5 of 6 (2×), 3 of 3, 6 of 6; T/C (dose: 400.0 mg/kg/injection, schedule: Q04DX002 (ip), vehicle: Klucel (hydroxypropylcellulose) (HPC)): 90, 114 [5 of 6 alive], 138, 157, 166, 166 [5 of 6 alive], 169, 171, 190 (2×), 191, 193, 195, 197, 203, 206, 206 [2 of 2 alive], 208, 211, 213, 215, 217, 218, 220, 223 (2×), 228, 230, 233, 239, 240 (2×), 243, 253, 265 % of control; T/C (dose: 400.0 mg/kg/injection, schedule: Q04DX003 (ip), vehicle: Klucel (hydroxypropylcellulose) (HPC), evaluated on day 30): 118, 121, 123 [2 of 3 alive], 128, 139, 170, 171, 178, 182, 183, 185, 189, 193, 197 (3×), 200, 201, 206, 210, 216, 217, 229, 231, 236 (2×), 237, 247, 251, 252, 253, 254, 257, 265, 275 % of control; T/C (dose: 400.0 mg/kg/injection, schedule: Q04DX003 (ip), vehicle: Klucel (hydroxypropylcellulose) (HPC), evaluated on day 35): 255 % of control
